# Laboratory results as given in publication PMC12286604.
# The chains behind the UniProt entries cited, without tags or fusion partners.
# UniProt P10415: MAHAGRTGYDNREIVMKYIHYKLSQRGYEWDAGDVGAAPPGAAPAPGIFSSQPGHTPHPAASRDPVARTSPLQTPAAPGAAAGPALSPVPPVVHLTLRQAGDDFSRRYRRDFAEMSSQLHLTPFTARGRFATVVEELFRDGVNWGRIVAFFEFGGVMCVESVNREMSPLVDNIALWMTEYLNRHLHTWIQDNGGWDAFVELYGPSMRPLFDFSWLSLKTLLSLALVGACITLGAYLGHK
# UniProt Q9UBF6: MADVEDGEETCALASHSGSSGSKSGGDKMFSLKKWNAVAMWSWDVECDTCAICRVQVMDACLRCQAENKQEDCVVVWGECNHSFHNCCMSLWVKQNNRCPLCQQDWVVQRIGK
# UniProt Q15370: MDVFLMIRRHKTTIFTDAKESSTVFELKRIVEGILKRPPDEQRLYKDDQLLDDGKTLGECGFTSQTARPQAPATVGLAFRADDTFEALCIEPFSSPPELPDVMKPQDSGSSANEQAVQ
# UniProt Q93034: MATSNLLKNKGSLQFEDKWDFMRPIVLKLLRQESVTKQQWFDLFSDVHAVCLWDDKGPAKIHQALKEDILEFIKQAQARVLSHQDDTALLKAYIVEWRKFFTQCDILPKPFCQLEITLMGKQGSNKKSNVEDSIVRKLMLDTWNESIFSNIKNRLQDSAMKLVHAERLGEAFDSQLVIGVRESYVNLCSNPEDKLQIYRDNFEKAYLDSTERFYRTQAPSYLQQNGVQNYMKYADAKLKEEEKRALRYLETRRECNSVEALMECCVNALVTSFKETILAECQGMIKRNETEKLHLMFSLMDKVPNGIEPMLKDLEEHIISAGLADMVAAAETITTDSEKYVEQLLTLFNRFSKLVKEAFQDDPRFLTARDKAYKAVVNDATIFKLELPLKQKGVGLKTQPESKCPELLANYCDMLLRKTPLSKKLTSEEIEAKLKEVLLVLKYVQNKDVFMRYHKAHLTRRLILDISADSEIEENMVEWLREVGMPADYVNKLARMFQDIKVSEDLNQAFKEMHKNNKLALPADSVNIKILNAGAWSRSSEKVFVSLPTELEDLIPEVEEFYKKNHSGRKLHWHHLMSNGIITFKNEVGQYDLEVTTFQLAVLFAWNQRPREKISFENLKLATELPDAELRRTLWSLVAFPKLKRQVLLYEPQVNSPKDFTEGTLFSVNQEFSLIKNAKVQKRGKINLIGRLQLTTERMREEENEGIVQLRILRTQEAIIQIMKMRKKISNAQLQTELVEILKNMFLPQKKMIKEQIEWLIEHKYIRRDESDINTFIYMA
# UniProt Q07820: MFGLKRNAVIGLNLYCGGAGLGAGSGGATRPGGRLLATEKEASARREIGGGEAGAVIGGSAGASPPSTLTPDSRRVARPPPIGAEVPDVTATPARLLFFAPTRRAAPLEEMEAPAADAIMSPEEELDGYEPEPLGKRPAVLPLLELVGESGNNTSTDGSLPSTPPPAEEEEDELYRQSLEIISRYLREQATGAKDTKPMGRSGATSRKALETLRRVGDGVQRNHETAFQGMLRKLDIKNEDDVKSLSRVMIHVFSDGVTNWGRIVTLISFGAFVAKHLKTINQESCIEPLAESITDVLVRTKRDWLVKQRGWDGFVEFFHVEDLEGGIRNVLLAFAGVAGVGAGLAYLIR
# No constants are given. Whether binding was seen depends on the method and setting. Binding seen in cells or lysates may run through a third protein. Some binding calls cover weakened binding; strength is not graded here.
# Tests used:
# [1] = target: T1, WSB2 (WD repeat and SOCS box-containing protein 2), wild type, transfected (UniProt Q9NYS7); assay: co-IP; semi-endogenous co-IP: anti-FLAG IP from 293T cells transfected with WSB2, endogenous partners detected by western blot
# T1 sequence: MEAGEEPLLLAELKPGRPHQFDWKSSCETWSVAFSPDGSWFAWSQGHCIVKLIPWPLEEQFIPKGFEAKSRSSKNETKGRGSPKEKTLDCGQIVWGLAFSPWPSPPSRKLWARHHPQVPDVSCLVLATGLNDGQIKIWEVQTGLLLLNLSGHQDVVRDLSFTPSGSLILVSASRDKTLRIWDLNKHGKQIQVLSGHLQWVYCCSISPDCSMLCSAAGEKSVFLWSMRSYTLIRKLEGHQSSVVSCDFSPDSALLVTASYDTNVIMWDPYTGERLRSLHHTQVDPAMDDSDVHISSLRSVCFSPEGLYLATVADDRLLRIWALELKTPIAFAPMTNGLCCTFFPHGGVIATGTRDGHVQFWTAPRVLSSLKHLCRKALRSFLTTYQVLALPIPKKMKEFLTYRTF
# [2] = target: T2, NOXA, endogenous (human (endogenous in 293T)) (UniProt Q13794); assay: co-IP; endogenous co-IP: IgG or anti-NOXA, anti-MCL-1, anti-BCL-2, anti-BCL-XL or anti-BAD antibodies, 293T whole-cell lysate, western blot
# T2 sequence: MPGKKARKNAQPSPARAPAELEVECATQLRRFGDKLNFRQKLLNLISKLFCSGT
Substance,binding [1],binding [2]
"BCL-2, endogenous (from UniProt P10415 1-239)",binds,–
"BCL-XL, endogenous (from UniProt Q07817-1 1-233)",binds,–
"RBX2, endogenous (from UniProt Q9UBF6 1-113)",binds,binds
"Elongin B, endogenous (from UniProt Q15370 1-118)",binds,binds
"Cullin 5, endogenous (from UniProt Q93034 1-780)",binds,binds
"MCL-1, endogenous (from UniProt Q07820 1-350)",binds,–
